Among the data in article doi:10.1101/2024.10.25.620379 are binding values, retold here.

Amino acid sequences for entries named in this document (tags omitted). A change or cut given only in a name is not applied to a line headed by its entry.
UniProt P61960: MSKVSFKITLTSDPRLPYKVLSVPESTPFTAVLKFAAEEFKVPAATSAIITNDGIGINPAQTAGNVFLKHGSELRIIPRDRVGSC

The experiment deals with T1, UBA5_(37-346), UBA5 amino acids 37-346, the functional fragment of UBA5 (human) (UniProt Q9GZZ9).
T1 sequence: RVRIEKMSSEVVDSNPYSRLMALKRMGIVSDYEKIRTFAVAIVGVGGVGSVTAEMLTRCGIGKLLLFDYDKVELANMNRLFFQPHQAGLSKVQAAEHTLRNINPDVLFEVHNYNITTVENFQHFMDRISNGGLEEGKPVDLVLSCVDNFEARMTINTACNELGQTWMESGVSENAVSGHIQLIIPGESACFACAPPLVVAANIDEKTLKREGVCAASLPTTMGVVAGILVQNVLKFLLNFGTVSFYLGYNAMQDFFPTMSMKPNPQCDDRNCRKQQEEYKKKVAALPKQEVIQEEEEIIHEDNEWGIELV
As to the kind of experiment: charging assay.

These are yes or no findings as the source states them, for the method shown. A result given as binding can be weak or reduced; the word gives no strength.

As for “ubiquitin-fold modifier 1 (UFM1) (from UniProt P61960)”, the binding entry is recorded as “binds”.
